PubChem BioAssay AID652243 – Drosophila RNAi Screening Center – 2013

Purpose: 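Knock-downs that decrease or increase androgen receptor reporter signal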 (primary screen)
Cells: Drosophila S2R+ cells
Knock-down reagent: long dsRNA against Drosophila genes
Timing: 72 h (48 h, then 24 h hormone)
Treatment: synthetic androgen R1881 at 10 nM for 24 h
Read-out: 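Per-well raw luminescence of the androgen-driven firefly reporter and of the Renilla control, two replicates each, without normalisation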
Direction: firefly reporter light: higher = more light from androgen-responsive reporter; Renilla control light: higher = more constitutive control signal (cell number, transfection)
Active means: 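Across duplicate plates, a knock-down whose log firefly/Renilla ratio shifted a set fold down or up from the GFP/LacZ control mean was a hit; the downward cut appears as both 1.5 and 3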
Calls: active = hit: reporter lowered or raised; inactive = no hit
The screen tested about 24,000 reagents; below is a random part of those with a known target gene and a result. In the full data, 246 (1%) were called active. 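Plates not normalised; calls are printed but the firefly/Renilla ratio behind them is not deposited; fold cut for lowering reported inconsistently.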 Raw values vary from plate to plate and are shown uncorrected. The numbers tell different reagents against one gene apart. A plus sign joins genes that one reagent is predicted to hit. Not given: the amount of reagent.

target gene	dsRNA no.	firefly reporter light, replicate 1	firefly reporter light, replicate 2	Renilla control light, replicate 1	Renilla control light, replicate 2	Outcome
Cog3 (Component of oligomeric golgi complex 3)	1	5.33e5	6.73e5	1.20e6	1.29e6	inactive
pum (pumilio)	1	2.43e5	2.40e5	3.86e5	5.43e5	inactive
pum (pumilio)	2	1.90e5	1.90e5	1.90e6	3.49e6	inactive
pum (pumilio)	3	8.40e5	1.33e6	1.50e6	3.02e6	inactive
pum (pumilio)	4	5.92e5	9.57e5	1.45e6	2.25e6	inactive
pum (pumilio)	5	4.32e5	4.03e5	5.79e5	4.19e5	inactive
ND-B18 (NADH dehydrogenase (ubiquinone) B18 subunit)	1	3.72e5	4.19e5	3.02e6	3.28e6	inactive
ND-B18 (NADH dehydrogenase (ubiquinone) B18 subunit)	2	1.85e5	1.70e5	5.61e5	5.97e5	inactive
E(z) (Enhancer of zeste)	1	9.82e5	9.28e5	1.56e6	2.35e6	inactive
E(z) (Enhancer of zeste)	2	3.55e5	4.21e5	1.12e6	1.12e6	inactive
lncRNA:CR31044 (long non-coding RNA::CR31044)	1	4.77e5	5.83e5	1.32e6	1.87e6	inactive
lncRNA:CR31044 (long non-coding RNA::CR31044)	2	3.57e5	2.74e5	6.90e5	5.51e5	inactive
CG5346	1	3.02e5	2.55e5	2.56e6	3.38e6	inactive
CG5346	2	3.71e5	3.75e5	1.11e6	1.08e6	inactive
CG5346	3	2.78e5	3.21e5	7.61e5	1.02e6	inactive
chn (charlatan)	1	1.42e6	1.21e6	2.58e6	1.94e6	inactive
chn (charlatan)	2	2.46e5	4.43e5	8.88e5	8.88e5	inactive
CG7149	1	6.32e5	8.66e5	2.07e6	1.49e6	inactive
Ugt36A1 + CG15418	1	1.60e5	1.44e5	1.18e6	1.18e6	inactive
Ugt36A1 + CG15418	2	8.99e5	7.95e5	6.90e5	6.05e5	inactive
CG2059	1	3.37e5	3.64e5	3.51e6	2.47e6	inactive
wdb (widerborst)	1	2.53e5	1.54e5	2.40e6	2.64e6	inactive
wdb (widerborst)	2					inactive
wdb (widerborst)	3					inactive
CG43339	1	8.14e5	6.18e5	1.29e6	1.51e6	inactive
CG31141	1	1.07e5	78590	2.19e5	3.53e5	inactive
CG31141	2	3.11e5	2.75e5	1.09e6	1.09e6	inactive
ymp (yellow-emperor)	1	4.85e5	5.59e5	6.09e5	9.38e5	inactive
ymp (yellow-emperor)	2	2.02e5	2.69e5	2.49e6	2.26e6	inactive
CG41527 (retired record)	1	9.40e5	6.71e5	1.55e6	1.36e6	inactive
CG34015	1	9.34e5	9.12e5	1.44e6	1.23e6	inactive
Dok (Downstream of kinase)	1	7867	6898	2.72e5	3.30e5	active
Dok (Downstream of kinase)	2	4.91e5	3.37e5	4.29e5	4.77e5	inactive
tll (tailless)	1	1.91e5	1.32e5	2.19e6	2.43e6	inactive
tll (tailless)	2	9.43e5	9.45e5	3.02e6	2.27e6	inactive
tll (tailless)	3	1.26e6	1.40e6	2.26e6	2.02e6	inactive
l(3)80Fg (lethal (3) 80Fg)	1	1.08e6	1.08e6	1.83e6	1.97e6	inactive
l(3)80Fg (lethal (3) 80Fg)	2	7.03e5	5.96e5	2.72e6	2.04e6	inactive
l(3)80Fg (lethal (3) 80Fg)	3	8.89e5	7.53e5	2.07e6	2.00e6	inactive
UbcE2M (NEDD8-conjugating enzyme UbcE2M)	1	1.15e6	1.02e6	1.32e6	2.02e6	inactive
CG17376	1	5.40e5	5.48e5	2.03e6	2.79e6	inactive
Ser8	1	94136	96762	1.77e6	1.77e6	inactive
Ser8	2	4.05e5	3.30e5	5.92e5	3.06e5	inactive
CG4950	1	1.69e5	1.73e5	2.13e6	1.98e6	inactive
Rab7	1	1.17e5	74207	4.97e5	4.41e5	inactive
CG11722	1	1.49e5	2.00e5	1.78e6	2.03e6	active
CheB42c (Chemosensory protein B 42c)	1	3.32e5	2.14e5	2.03e6	1.65e6	inactive
CheB42c (Chemosensory protein B 42c)	2	2.44e5	2.87e5	5.80e5	5.83e5	inactive
BomBc1 (Bomanin Bicipital 1)	1	81536	1.39e5	1.45e6	1.45e6	inactive
BomBc1 (Bomanin Bicipital 1)	2	5.56e5	4.70e5	4.78e5	4.79e5	inactive
hpRNA:CR18854 (hairpin RNA:CR18854)	1	2.58e5	3.17e5	1.61e6	1.65e6	inactive
hpRNA:CR18854 (hairpin RNA:CR18854)	2	3.82e5	5.32e5	9.95e5	1.31e6	inactive
CAH15 (Carbonic anhydrase 15)	1	1.64e5	2.51e5	1.26e6	1.45e6	inactive
CAH15 (Carbonic anhydrase 15)	2	3.74e5	3.12e5	6.47e5	6.45e5	inactive
CG31436	1	1.59e5	1.95e5	2.11e6	2.41e6	inactive
CG31436	2	1.13e6	8.74e5	9.84e5	9.08e5	inactive
PK1-R (Pyrokinin 1 receptor)	1	1.48e5	1.67e5	2.06e6	2.64e6	inactive
CG5877	1	90609	94775	7.53e5	7.46e5	inactive
CG5877	2	3.20e5	5.07e5	6.80e5	1.07e6	inactive

Active calls (from the list above):
target gene	dsRNA no.	firefly reporter light, replicate 1	firefly reporter light, replicate 2	Renilla control light, replicate 1	Renilla control light, replicate 2	Outcome
Dok (Downstream of kinase)	1	7867	6898	2.72e5	3.30e5	active
CG11722	1	1.49e5	2.00e5	1.78e6	2.03e6	active
